Experimental data from paper doi:10.1101/373209.
Like-named read-outs stand apart in the source and are kept apart here. Results are given in words; binding and its absence hold for the method and conditions named. In cells and extracts the contact can be indirect. Some results given as binding are weak or reduced against the parent protein; the word gives no strength. For some assays here: Sequences can lack the tags named with a protein. Values belong to the molecule of their own block, whether it stands above or below them.

Chains of the proteins cited; added tags and fusions are not shown.
UniProt Q63562: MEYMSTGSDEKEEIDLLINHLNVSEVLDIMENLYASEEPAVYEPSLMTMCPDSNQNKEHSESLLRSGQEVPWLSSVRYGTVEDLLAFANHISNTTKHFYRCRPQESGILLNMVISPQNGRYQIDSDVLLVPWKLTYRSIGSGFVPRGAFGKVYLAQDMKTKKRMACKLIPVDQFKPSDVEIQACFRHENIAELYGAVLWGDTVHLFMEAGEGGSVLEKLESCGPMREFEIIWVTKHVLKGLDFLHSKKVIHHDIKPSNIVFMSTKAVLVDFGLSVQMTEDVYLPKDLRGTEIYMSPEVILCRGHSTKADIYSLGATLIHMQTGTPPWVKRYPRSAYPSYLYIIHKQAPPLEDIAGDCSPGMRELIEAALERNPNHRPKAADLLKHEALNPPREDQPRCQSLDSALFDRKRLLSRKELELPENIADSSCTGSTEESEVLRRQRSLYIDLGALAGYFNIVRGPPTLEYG
UniProt P41279: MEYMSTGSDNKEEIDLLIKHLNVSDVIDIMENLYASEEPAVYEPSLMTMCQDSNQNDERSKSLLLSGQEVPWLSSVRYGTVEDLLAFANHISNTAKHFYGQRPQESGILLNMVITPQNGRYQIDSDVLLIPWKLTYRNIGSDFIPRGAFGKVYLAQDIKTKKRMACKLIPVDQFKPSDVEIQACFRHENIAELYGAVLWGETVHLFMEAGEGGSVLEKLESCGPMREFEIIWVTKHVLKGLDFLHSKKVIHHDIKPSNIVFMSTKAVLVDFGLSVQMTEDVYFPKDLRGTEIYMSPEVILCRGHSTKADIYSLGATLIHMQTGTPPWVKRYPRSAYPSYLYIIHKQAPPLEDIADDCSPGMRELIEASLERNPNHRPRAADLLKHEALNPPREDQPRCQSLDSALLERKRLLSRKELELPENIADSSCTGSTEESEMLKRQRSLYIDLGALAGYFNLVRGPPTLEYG
UniProt P19838: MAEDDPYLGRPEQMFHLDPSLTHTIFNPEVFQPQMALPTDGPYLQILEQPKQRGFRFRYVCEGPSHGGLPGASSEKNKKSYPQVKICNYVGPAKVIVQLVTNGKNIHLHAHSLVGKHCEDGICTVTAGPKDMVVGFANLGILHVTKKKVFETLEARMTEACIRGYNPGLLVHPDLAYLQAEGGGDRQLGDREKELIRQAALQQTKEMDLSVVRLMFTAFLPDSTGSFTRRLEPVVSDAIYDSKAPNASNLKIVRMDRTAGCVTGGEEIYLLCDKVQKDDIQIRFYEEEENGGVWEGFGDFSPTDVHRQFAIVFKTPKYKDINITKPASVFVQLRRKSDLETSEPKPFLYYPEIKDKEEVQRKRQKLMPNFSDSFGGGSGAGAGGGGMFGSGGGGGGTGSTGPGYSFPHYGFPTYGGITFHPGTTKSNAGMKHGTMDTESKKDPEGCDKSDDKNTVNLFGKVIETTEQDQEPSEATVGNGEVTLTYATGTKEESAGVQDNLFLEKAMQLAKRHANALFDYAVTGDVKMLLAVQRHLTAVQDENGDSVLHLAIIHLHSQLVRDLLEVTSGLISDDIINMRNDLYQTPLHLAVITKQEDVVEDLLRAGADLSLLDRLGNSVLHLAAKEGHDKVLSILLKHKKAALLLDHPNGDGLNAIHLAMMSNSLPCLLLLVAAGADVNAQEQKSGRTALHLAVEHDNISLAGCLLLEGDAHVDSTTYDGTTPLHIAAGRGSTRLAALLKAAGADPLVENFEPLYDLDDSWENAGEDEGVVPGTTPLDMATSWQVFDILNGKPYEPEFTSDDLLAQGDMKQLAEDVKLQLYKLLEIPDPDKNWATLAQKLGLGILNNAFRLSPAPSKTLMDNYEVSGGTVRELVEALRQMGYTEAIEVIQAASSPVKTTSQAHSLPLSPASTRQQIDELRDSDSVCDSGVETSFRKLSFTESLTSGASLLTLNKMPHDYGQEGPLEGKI

Key:
Experiment in all cases: co-IP
FLAG-TPL-2 [1] = target: FLAG-TPL-2 (UniProt Q63562)
[2] = target: T1, BCL-3 (expressed in Nfkb1-/- MEFs) (UniProt P20749)
T1 sequence: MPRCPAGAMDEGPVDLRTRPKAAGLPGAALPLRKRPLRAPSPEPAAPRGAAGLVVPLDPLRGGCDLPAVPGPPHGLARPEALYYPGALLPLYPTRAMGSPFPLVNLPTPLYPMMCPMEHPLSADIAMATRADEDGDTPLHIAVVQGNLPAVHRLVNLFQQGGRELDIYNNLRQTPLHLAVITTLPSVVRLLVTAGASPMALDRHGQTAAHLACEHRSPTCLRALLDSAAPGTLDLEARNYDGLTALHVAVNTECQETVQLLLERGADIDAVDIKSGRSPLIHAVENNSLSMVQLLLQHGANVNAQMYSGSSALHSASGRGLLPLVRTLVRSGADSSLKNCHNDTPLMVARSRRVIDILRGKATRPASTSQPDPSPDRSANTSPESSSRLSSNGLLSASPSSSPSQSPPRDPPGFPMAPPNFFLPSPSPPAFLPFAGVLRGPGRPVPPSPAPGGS

BCL-3 = target: T2, BCL-3 (UniProt P20749)
T2 sequence: T1 sequence

[3] = target: endogenous TPL-2 (human (endogenous in THP-1)) (UniProt P41279)
FLAG-TPL-2 [4] = target: FLAG-TPL-2 (UniProt Q63562); remark: listed apart in the source

Molecule: TPL-2 (from UniProt Q63562 1-467)
binding (BCL-3): binds

B1: endogenous BCL-3 (protein, UniProt P20749 1-454)
chain: T1 sequence
binding [3]: binds

B2: MYC-BCL-3 (protein, UniProt P20749 1-454)
chain: T1 sequence
binding (FLAG-TPL-2 [4]): binds

The next lines start with the values.

binding (FLAG-TPL-2 [1]): binds
Molecule: XP-p105 (from UniProt P19838 1-968)

binding [2]: binds
Molecule: TPL-2 (expressed in Nfkb1-/- MEFs) (from UniProt Q63562 1-467)
